Results from the supplement of paper PMC3334620.
Over roughly 33,000 sequences, “E-score (-0.5 to 0.5)” has its median near -8e-05; the highest 2% begin near 0.23. The list shows a part of the results.

Target: T1, Nrg2 (UniProt P38082)
T1 sequence: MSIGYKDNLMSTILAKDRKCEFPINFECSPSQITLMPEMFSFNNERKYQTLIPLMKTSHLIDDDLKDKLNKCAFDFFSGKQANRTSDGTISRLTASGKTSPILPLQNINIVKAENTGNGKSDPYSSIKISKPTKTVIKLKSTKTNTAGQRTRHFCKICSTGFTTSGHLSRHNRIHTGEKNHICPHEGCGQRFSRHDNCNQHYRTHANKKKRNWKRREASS
Experiment: PBM E-score (8-mer binding enrichment) (E-score (-0.5 to 0.5)); higher = stronger / more preferred TF binding
Conditions: protein concentration: 100 nM; construct: GST-full length
Procedure: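 Universal 'all 10-mer' protein binding microarrays (Agilent AMADID 015681) probed with GST-tagged S. cerevisiae TFs (full-length or DBD) made by in vitro transcription/translation (PURExpress), about 100-200 nM. Bound TF was detected with fluorescent anti-GST. Each ungapped 8-mer (which stands for itself and its reverse complement) is scored by the PBM enrichment score (E-score), a modified Wilcoxon-Mann-Whitney statistic from -0.5 to +0.5, computed with the Universal PBM Analysis Suite. Scale: above 0.35 generally sequence-specific binding.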

Sequence | PBM E-score
GGTCCCGA | -0.0971
AGCGCCTA | 0.0167
CAGCTTTA | 0.0598
CGGGTGTC | 0.0306
ACTAGCCA | -0.0762
AAGACTCC | -0.317
AACGTCCC | -0.0185
TAAGCCCA | 0.0533
AAAGGAGC | -0.159
CACGCTAC | -0.0912
GAAGTACA | 0.0185
CGATCGCC | 0.00189
CCAGCTAC | -0.157
GAACCTCA | -0.0774
ACTGGTGG | -0.101
GGGTCGGA | -0.107
CTATTACA | 0.088
AAGGGTCC | 0.439
CGAGTGTC | 0.118
GTGGACAA | 0.227
ATCGCGCC | 0.201
GGAGTAAA | 0.215

Laid out differently: entries from further up
Sequence,PBM E-score
AAGACTCC,-0.317
AACGTCCC,-0.0185
TAAGCCCA,0.0533
AAAGGAGC,-0.159
CACGCTAC,-0.0912
GAAGTACA,0.0185
CGATCGCC,0.00189
CCAGCTAC,-0.157
GAACCTCA,-0.0774
ACTGGTGG,-0.101
GGGTCGGA,-0.107
CTATTACA,0.088
AAGGGTCC,0.439
CGAGTGTC,0.118
GTGGACAA,0.227
ATCGCGCC,0.201

The results go on:

Sequence | PBM E-score
AACAGCTT | -0.0355
GGTTAGGA | -0.191
CGGAGCGA | 0.129
AACCATAT | 0.0769
CAAGTGGC | 0.0772
TCTCAAAA | 0.083
GCCAAGAA | -0.0233
CGCGCTTC | 0.0274
CGGCTCCC | -0.12
ATTCGGGG | 0.243
CACCTGAC | 0.00731
ATAAGCTG | 0.00477
TAGACATA | 0.0718
AGACTCAT | -0.106
ACTCAGAG | -0.0817
ATTCGGAA | 0.102
ACGAACCT | 0.0576
CGCACAAA | 0.257
ATCCAGCG | 0.0764
AGGGTACT | 0.255
CTAGTATA | -0.196
GCACCGTA | -0.0818

Sequence | PBM E-score
AGTTCCGG | -0.0325
AACTACAA | 0.195
GCCTTACC | -0.166
TGAGTCCA | 0.116
GAAGCCTC | -0.146
AATGATGT | 0.0851
GGTGCGGA | -1e-05
AGTGCACG | 0.0226
CGCCGCAA | 0.0999
CGATTGCC | -0.0713
CGCTCCTA | -0.0527
ACTTGACT | 0.0321
ATCGCGTC | 0.133
AGGTTTTA | -0.156
CAATATGC | 0.0165
CCTAGAAA | -0.0341
AGCAAAAG | -0.0507
AAGTGTAT | -0.0378
CTCGATAC | 0.245
CAGCGGCG | -0.00439
CCTATCAA | 0.071
CGCAGGAA | -0.049

Sequence | PBM E-score
TACTTAAA | -0.105
TGTAAAAA | -0.0125
AACGCTGA | -0.116
CAGGATGA | -0.0359
ATGCGTTC | 0.208
AACTAGCT | 0.0365
GAACGGCC | -0.0287
ATCGGAGA | -0.1
AGTGCTAG | -0.0309
AAAGACGC | -0.084
ACGCTTGC | -0.0292
ACCCCGAA | 0.221
AAGTCCTA | -0.264
AAACAGGG | 0.207
ACTACCCC | -0.0169
ACGATACA | -0.0148
AATCTGTC | 0.088
GTGAACAA | 0.204
TATCTCCA | 0.131
CTATACAC | -0.0773
